{"sequences": {"note": "Chains of the proteins cited; added tags and fusions are not shown. Residues count along the entry.", "UniProt P16092, residues 22-822": "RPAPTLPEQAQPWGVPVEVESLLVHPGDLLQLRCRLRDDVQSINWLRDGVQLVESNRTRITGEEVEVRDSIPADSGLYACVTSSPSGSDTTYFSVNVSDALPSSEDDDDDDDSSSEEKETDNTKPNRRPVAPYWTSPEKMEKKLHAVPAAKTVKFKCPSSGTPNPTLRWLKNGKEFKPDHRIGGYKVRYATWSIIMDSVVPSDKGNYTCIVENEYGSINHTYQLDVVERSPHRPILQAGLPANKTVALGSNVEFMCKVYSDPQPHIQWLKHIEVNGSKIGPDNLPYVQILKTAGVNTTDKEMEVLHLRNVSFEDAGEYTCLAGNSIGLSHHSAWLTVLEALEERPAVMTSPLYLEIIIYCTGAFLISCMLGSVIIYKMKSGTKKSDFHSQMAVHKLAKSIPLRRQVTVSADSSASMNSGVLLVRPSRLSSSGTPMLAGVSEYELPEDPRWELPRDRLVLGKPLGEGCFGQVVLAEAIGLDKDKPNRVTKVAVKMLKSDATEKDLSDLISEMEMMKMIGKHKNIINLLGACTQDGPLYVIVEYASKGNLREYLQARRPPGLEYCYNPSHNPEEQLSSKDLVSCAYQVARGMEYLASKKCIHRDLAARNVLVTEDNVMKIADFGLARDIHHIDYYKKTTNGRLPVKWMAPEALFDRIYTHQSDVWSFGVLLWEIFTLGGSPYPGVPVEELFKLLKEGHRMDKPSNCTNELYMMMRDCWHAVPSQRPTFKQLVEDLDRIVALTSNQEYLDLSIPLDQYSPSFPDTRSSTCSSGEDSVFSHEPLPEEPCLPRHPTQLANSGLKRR", "UniProt P09038, residues 134-288": "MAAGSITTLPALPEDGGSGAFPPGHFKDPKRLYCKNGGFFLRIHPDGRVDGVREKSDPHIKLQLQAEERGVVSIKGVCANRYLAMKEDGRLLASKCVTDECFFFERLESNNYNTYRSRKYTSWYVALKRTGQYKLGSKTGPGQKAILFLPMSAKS"}, "source": "paper PMC3351436", "about": "“Direct and Allosteric Inhibition of the FGF2/HSPGs/FGFR1 Ternary Complex Formation by an Antiangiogenic, Thrombospondin-1-Mimic Small Molecule” (PLoS ONE, 2012)", "molecular_target": "FGFR1 on FGFR1-transfected A745 CHO flg-1A cells (UniProt P16092)", "experiment": "binding of Europium-labeled FGF2 to cells; Eu-FGF2 (10 ng/ml) on FGFR1-transfected, HSPG-deficient A745 CHO flg-1A cells, in the presence of sm27 or unlabeled FGF2 (1.5 µg/ml); only the binder purified", "note": "These are yes or no findings as the source states them, for the method shown. Some results given as binding are weak or reduced against the parent protein; the word gives no strength."}
{"substance": "Human recombinant FGF2 (from UniProt P09038-2 1-155) (ligand)", "values": [{"measurement": "binding", "result": "binds"}]}
